This passage reports binding results from article doi:10.1101/2024.02.14.580406.

Protein sequences, listed by entry. Tags and fused reporters are not part of them.
UniProt Q9H792: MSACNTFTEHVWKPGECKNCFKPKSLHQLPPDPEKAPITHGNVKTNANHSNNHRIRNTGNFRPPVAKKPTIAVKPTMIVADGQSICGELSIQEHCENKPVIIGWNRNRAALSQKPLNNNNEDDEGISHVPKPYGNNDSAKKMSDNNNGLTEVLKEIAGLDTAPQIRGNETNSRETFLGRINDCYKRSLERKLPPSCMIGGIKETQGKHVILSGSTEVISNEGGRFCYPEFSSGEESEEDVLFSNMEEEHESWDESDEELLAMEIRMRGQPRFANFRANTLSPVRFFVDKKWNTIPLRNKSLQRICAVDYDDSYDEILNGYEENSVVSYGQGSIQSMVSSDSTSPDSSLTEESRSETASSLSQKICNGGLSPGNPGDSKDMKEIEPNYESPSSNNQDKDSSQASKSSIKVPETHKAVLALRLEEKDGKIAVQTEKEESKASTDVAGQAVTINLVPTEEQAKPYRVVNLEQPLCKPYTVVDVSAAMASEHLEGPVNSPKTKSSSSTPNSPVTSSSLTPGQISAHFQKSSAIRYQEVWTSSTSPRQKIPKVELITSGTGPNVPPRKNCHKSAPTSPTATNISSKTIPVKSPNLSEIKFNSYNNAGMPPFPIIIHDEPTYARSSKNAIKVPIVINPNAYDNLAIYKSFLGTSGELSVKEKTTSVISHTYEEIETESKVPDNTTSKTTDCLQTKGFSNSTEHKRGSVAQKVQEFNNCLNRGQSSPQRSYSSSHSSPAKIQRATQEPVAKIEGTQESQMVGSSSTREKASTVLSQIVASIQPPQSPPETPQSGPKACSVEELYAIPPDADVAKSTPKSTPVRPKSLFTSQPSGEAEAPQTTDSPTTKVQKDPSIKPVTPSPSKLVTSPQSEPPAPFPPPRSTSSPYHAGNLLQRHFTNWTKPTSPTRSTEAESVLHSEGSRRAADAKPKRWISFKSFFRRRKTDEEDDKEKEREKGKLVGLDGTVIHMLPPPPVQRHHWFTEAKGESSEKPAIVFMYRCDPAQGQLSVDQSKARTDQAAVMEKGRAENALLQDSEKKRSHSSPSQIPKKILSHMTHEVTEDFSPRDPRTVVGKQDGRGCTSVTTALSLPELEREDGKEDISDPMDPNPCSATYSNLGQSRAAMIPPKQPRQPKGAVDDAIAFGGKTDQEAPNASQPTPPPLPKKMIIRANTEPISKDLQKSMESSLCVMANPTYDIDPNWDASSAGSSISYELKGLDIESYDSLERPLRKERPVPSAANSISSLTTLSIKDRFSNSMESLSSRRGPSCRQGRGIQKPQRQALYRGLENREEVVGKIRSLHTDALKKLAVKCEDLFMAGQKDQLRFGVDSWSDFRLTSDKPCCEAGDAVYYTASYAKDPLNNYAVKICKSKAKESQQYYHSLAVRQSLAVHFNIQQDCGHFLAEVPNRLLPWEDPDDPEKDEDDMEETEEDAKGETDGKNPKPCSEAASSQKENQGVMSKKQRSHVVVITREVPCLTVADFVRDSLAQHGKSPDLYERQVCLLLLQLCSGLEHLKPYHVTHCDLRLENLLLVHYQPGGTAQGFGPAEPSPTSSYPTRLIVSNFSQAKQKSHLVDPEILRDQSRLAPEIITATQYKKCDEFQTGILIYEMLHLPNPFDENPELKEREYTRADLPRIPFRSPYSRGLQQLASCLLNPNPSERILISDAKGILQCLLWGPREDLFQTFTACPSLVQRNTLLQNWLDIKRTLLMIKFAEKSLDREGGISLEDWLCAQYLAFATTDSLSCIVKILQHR
UniProt Q13557: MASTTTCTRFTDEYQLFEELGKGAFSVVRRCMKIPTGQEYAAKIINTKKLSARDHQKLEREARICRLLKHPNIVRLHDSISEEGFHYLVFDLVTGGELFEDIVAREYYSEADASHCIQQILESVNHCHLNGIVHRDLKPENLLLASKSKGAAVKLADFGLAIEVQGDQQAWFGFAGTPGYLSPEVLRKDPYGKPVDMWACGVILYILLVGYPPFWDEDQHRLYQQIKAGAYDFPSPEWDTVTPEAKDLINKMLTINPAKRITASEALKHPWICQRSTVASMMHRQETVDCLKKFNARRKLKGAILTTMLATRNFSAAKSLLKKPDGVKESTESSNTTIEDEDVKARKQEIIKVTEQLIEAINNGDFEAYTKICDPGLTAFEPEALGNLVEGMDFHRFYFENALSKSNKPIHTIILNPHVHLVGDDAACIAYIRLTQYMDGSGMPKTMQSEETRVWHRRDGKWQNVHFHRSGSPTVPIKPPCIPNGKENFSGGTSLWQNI
UniProt Q13555: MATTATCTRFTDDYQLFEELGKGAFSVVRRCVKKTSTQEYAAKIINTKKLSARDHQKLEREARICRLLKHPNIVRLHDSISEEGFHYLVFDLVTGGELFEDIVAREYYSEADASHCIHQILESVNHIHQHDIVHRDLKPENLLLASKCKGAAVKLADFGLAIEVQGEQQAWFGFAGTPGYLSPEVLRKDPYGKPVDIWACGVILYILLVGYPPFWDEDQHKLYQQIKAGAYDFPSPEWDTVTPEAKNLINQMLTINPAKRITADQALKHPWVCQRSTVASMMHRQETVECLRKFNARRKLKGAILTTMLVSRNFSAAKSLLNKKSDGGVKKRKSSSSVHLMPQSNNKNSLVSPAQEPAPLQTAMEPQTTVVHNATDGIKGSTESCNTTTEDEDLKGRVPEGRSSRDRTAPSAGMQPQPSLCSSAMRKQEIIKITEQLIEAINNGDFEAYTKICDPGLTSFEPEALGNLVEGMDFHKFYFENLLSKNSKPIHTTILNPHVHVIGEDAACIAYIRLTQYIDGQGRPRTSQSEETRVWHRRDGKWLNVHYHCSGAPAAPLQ

These are yes or no findings as the source states them, for the method shown. Binding seen in cells or lysates may run through a third protein. Some results given as binding are weak or reduced against the parent protein; the word gives no strength. For some assays here: Tags and fused reporters may be left off the sequences shown.

In experiment [1] the target is T1, PEAK2, wildtype (N-terminal HA-tagged and C-terminal FLAG-tagged) (UniProt Q86YV5).
T1 sequence: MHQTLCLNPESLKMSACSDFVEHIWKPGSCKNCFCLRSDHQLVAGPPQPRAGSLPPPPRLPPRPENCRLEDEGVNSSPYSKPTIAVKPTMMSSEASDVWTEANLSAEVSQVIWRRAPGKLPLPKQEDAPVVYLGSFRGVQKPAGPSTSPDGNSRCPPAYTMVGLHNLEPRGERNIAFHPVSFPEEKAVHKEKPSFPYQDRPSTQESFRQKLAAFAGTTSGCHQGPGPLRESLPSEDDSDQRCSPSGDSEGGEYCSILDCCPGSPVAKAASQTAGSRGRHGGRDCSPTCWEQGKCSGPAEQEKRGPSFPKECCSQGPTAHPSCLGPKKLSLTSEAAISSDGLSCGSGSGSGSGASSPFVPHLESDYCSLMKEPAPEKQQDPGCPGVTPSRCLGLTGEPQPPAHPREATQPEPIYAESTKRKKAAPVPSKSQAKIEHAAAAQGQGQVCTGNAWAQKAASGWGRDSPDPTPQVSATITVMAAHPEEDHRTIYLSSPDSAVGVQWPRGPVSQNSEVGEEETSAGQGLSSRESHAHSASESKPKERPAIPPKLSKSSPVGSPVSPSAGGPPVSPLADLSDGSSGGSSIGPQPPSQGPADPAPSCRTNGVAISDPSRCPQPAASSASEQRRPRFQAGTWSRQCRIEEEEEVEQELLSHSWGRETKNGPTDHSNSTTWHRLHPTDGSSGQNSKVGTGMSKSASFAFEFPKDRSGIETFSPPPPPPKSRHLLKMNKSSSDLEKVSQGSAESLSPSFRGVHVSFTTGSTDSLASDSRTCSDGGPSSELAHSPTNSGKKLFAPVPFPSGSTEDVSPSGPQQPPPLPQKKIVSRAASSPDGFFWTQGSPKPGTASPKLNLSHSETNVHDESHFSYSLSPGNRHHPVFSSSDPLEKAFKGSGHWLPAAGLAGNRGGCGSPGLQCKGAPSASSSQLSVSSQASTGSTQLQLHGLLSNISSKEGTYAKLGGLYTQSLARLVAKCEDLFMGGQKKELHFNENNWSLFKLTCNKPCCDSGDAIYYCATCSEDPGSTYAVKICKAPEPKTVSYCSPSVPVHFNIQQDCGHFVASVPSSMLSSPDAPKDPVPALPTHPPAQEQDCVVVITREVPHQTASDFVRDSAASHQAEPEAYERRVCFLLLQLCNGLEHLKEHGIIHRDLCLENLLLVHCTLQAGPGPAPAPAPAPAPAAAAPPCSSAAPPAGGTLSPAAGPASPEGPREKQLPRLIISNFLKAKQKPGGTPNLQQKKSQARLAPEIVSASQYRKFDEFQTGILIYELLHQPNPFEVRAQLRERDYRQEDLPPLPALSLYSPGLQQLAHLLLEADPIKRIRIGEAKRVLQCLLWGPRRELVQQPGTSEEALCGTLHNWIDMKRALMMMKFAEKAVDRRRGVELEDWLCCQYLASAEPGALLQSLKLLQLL
Nature of the experiment: co-IP.

Experiment [2] deals with endogenous PEAK1 (human (endogenous in MDA-MB-231)) (UniProt Q9H792). Kind of experiment: proximity ligation.
The target of experiment [3] is T2, endogenous PEAK2 (human (endogenous in MDA-MB-231)) (UniProt Q86YV5).
T2 sequence: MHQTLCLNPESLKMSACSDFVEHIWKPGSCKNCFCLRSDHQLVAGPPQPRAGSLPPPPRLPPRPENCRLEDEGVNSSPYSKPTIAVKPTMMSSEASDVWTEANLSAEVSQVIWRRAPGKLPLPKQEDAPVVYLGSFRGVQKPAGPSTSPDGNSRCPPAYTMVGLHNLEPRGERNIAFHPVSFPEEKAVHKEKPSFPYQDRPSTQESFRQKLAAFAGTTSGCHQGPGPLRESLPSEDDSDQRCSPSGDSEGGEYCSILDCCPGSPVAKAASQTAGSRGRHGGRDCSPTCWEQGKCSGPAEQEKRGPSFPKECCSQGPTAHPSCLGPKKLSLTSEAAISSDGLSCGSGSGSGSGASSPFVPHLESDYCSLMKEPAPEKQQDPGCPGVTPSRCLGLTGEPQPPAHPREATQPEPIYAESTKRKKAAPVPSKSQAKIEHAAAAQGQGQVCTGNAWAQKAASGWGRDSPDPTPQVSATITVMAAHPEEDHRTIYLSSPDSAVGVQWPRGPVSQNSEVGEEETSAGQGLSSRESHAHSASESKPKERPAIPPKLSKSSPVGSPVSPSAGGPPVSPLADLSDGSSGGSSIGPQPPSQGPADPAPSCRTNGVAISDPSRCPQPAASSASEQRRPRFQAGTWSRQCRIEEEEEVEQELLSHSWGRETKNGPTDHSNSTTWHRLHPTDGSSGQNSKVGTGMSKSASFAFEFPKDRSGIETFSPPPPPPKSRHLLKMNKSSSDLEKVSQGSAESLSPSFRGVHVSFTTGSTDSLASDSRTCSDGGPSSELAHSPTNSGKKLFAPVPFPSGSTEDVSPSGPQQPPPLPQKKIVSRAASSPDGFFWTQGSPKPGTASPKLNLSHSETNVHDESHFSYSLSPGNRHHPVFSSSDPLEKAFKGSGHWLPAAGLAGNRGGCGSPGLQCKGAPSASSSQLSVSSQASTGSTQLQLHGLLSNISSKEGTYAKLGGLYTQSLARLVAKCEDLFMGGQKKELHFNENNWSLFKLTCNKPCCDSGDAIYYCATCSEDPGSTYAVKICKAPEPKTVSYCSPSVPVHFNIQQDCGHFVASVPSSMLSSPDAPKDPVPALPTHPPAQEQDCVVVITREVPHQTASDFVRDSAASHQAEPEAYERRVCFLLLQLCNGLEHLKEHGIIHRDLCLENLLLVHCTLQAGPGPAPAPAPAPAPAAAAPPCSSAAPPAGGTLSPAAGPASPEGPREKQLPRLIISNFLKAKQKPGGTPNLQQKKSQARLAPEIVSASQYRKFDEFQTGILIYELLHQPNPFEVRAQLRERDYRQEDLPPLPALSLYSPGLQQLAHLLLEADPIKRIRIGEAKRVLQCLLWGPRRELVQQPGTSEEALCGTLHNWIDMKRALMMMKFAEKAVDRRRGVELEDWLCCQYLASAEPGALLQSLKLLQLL
Nature of the experiment: proximity ligation.

As for “calcium/calmodulin-dependent protein kinase 2 (CAMK2)D (from UniProt Q13557 1-499) (enzyme)”, the binding entry in experiment [1], in experiment [2] and in experiment [3] was “binds” throughout.
As to “calcium/calmodulin-dependent protein kinase 2 (CAMK2)G (from UniProt Q13555 1-558) (enzyme)”, the binding entry in experiment [2] and in experiment [3] was “binds” each time.
